Test results reported in patent US7521477B2, “Vitamin C derivatives with peptide, preparation method thereof and composition comprising the same” (Peptron Co., Ltd., priority 2003, dated 2009).
Not every detail of the peptide structures is certain; ends, links or a residue may be inferred. Some of these results come from one statement about several compounds together. Peptide text beside a SMILES is read from it. * marks the point of attachment. X1 = O=C(CCC(=O)*)OC[C@H](O)[C@H]1OC(=O)C(O)=C1O

Columns and labels:
[1] = Antioxidant effect, DPPH free radical scavenging; details: FIG. 4
[2] = Color change test (storage stability in solution); format: physicochemical; parameters: key: −: no or very slight noticeable change (colorless or light yellow); +: slight; ++: moderate; +++: extreme; details: 50 mM in 50 mM potassium phosphate pH 7.0, 40° C.
Experimental: The compounds I to IV synthesized in Example 4 and vitamin C (Sigma Aldrich) were independently dissolved in 50 mM potassium phosphate of pH 7.0 at a concentration of 50 mM, and stored in an incubator at 40° C. for three weeks. Thereafter, the compounds and vitamin C were evaluated for color change according to the standard criteria, and the results are given in Table 2, below.

6-(succinyl-glycyl-lysyl-histidine)ascorbic acid [II-2]
Ability to scavenge the free radical ([1]; concentration of 100 μM): ≥ 70%

C[C@@H](O)[C@H](NC(=O)[C@H](CCCCN)NC(=O)CCC(=O)OC[C@H](O)[C@H]1OC(=O)C(O)=C1O)C(=O)N[C@H](C(=O)N[C@@H](CCCCN)C(=O)N[C@@H](CO)C(=O)O)[C@@H](C)O [II-4, 6-(succinyl-lysyl-threonyl-threonyl-lysyl-serine(SEQ ID NO:1))ascorbic acid] (X1-KTTKS-OH)
Color change After 1 week ([2]; after 1 week): − | Color change After 2 weeks ([2]; after 2 weeks): + | Color change After 3 weeks ([2]; after 3 weeks): + | Ability to scavenge the free radical ([1]; concentration of 10 μM): ≥ 70%
